SMILES strings stand for the structures. pIC50: −log10 of the molar value. Structures were worked out from names or drawings and are uncertain.

Amino acid sequences for entries named in this document (tags omitted).
UniProt P61073, whole entry: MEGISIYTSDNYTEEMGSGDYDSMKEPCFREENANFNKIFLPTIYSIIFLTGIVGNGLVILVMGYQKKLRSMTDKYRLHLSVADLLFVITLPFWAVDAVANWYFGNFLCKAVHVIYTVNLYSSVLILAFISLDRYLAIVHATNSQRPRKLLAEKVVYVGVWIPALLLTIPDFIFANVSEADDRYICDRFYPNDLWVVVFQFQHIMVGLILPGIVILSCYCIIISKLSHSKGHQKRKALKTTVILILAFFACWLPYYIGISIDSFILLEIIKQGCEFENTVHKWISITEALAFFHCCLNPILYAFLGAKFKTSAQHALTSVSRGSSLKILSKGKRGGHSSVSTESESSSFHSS

The target of one experiment is CXCR4 (U87.CXCR4 cells) (Homo sapiens, UniProt P61073). The experiment is described as follows: Intracellular CXCL-12-induced calcium mobilization assay (FLIPR). Particulars: read-out: IC50 CXCL-12 Ca2+ flux U87.CXCR4+, CXCL-12 25-50 ng/mL. In general terms: Calcium flux is commonly read through the fluorescence of an indicator in the cells.
Experiment [1] concerns the target CXCR4 (Jurkat cells expressing CXCR4) (Homo sapiens, UniProt P61073). The experiment is described as follows: Chemokine (CXCL12-AF647) binding inhibition assay. The settings on record: read-out: IC50 CXCL-12 binding Jurkat, CXCL12-AF647 25 ng/mL.

Take `Cc1cccnc1C1CCCN1C(C)c1cn2c(N3CCN(C)CC3)cccc2n1` (centres unmarked): the pIC50 (at CXCR4 (U87.CXCR4 cells); in experiment [1]) was 7.00 to 11.00 in each case.

The values above are taken from patent US11332470B2, “CXCR4 inhibitors and uses thereof” (X4 Pharmaceuticals, Inc., priority 2016, dated 2022).
